Consider two substances from PMC6476135.

The chains behind the UniProt entries cited, without tags or fusion partners. Where a name states a change or a piece, a line headed by the entry shows the natural chain unless it says otherwise. Residues count along the entry.
UniProt Q99MB1, residues 26-905: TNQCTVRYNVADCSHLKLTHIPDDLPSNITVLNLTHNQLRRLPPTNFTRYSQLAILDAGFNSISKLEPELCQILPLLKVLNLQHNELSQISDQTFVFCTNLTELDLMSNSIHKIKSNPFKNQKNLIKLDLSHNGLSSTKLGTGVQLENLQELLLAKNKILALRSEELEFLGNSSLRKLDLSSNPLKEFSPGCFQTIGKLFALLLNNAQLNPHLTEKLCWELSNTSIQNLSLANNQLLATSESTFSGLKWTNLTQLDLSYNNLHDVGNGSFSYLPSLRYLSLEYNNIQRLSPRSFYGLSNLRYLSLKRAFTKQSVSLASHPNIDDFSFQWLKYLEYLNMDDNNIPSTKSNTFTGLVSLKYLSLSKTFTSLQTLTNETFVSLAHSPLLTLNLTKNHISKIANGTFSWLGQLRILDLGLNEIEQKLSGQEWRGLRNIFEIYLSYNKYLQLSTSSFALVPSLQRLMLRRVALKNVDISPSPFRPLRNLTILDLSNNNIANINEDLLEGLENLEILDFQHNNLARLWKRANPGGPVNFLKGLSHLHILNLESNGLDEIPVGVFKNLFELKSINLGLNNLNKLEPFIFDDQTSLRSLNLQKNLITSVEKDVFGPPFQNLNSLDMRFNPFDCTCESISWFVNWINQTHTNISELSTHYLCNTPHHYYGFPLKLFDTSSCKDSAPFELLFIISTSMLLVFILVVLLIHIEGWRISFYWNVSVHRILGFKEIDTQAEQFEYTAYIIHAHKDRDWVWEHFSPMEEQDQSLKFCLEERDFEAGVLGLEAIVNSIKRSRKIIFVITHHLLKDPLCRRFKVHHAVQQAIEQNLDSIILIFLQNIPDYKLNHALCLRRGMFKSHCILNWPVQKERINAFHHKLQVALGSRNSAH
UniProt Q99LI8: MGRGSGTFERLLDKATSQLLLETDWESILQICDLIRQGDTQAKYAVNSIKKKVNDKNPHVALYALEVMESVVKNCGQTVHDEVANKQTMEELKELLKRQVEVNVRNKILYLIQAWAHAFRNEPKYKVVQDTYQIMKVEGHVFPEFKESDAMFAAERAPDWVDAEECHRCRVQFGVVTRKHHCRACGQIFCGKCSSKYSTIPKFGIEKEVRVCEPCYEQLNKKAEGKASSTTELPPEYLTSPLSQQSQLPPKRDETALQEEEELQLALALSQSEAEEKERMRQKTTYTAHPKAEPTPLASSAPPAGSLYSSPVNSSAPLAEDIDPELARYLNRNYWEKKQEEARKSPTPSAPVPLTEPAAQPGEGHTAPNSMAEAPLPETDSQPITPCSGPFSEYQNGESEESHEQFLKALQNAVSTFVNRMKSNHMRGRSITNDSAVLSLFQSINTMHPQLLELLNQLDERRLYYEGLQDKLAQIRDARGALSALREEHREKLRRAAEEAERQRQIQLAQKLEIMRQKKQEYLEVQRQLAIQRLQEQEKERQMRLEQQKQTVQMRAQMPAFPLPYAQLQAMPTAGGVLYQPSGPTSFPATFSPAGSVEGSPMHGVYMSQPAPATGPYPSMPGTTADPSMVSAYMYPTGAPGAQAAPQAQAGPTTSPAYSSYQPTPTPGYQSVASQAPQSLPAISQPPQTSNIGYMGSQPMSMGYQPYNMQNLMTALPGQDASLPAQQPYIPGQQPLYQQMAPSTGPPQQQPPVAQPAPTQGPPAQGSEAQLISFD
UniProt P70297: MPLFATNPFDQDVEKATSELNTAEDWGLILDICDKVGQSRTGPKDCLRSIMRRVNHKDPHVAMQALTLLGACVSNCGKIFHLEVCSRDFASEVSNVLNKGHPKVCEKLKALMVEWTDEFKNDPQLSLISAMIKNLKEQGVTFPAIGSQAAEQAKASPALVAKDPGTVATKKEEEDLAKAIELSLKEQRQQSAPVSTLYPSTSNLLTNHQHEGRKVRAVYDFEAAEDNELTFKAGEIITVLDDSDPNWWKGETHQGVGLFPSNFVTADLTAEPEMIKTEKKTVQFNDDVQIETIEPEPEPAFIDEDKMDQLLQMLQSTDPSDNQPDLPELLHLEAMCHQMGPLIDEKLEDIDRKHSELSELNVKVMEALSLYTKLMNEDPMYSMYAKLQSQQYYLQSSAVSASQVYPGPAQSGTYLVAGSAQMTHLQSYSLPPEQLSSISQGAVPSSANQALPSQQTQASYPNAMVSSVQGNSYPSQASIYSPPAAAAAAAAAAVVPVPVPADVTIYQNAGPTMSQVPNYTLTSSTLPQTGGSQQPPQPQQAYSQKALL

Results are given in words; binding and its absence hold for the method and conditions named. Binding seen in cells or lysates may run through a third protein. Some binding calls cover weakened binding; strength is not graded here.

Assay [1] has as its target Toll-like receptor 3 (TLR3) (mouse (endogenous in C8-D1A)) (UniProt Q99MB1). In words: co-IP; anti-TLR3 immunoprecipitation (Catch and Release v2.0) from lysates of C8-D1A astrocytes stimulated with poly(I:C)/LyoVec for 5, 8, 12, 15, 30 min; blot for Hrs.
The target is the same in assay [2]. In words: co-IP; anti-TLR3 immunoprecipitation (Catch and Release v2.0) from lysates of C8-D1A astrocytes untreated or stimulated with poly(I:C) (for STAM also poly(I:C)/LyoVec) for 5, 8, 12, 15, 30 min; blots for Hrs and STAM.
Assay [3] has as its target hepatocyte growth factor-regulated tyrosine kinase substrate (Hrs) (mouse (endogenous in C8-D1A)) (UniProt Q99LI8). Put plainly: co-IP; anti-STAM and anti-Hrs immunoprecipitations (Catch and Release v2.0) from lysates of C8-D1A astrocytes untreated or stimulated with poly(I:C) for 5, 8, 12, 15 min; blots for Hrs and STAM.

As for “hepatocyte growth factor-regulated tyrosine kinase substrate (Hrs) (from UniProt Q99LI8 1-775)”, the binding entry in assay [1] is given as “binds weakly”; in assay [2], “binds”.

In the case of “signal transducing adaptor molecule (STAM) (from UniProt P70297 1-548)”, the binding result in assay [3] is reported as “binds”; in assay [2], “no binding”.
